PubChem BioAssay AID1259254 – NCATS, 2017
Purpose: 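Finding genes that stop cells copying their DNA twice in one cycle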 (primary screen). Cell system: human HCT116 colorectal cancer cells. Knock-down reagent: single siRNA against human genes. Duration: 3 days. Detection: 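Nuclei stained with Hoechst and imaged; cell-cycle phase assigned by DNA content; G2 share scaled per plate, non-targeting siRNA 0%, GMNN siRNA 100%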. Scale: G2 robust z-score and G2 cells, % of GMNN control: higher = more G2 cells, more excess DNA replication. Hit rule: 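Active siRNAs have a G2 robust z of 5 or more median absolute deviations over the median, which in these data means about 38% or higher of GMNN control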.
This is one part, drawn at random, of about 59,000 reagents tested. About 1,550 of them (2.6%) were called active. 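G2 share is only a proxy for re-replication; each gene was hit by three separate siRNAs, and active genes were retested.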 Not all columns of the deposit are shown. The record does not give: the amount of reagent.

UST (uronyl 2-sulfotransferase) [SID160725231] gave G2 robust z-score -0.226; G2 cells, % of GMNN control 1.38; inactive.
With knock-down of UST (uronyl 2-sulfotransferase) [SID160725235], the screen gave G2 robust z-score 1.36; G2 cells, % of GMNN control 12.5; inactive.
UST (uronyl 2-sulfotransferase) [SID160725244] gave G2 robust z-score 0.39; G2 cells, % of GMNN control 5.71; inactive.
With knock-down of PGM5P4 (phosphoglucomutase 5 pseudogene 4) [SID160772788], the screen gave G2 robust z-score -0.0805; G2 cells, % of GMNN control 2.4; inactive.
Silencing of PGM5P4 (phosphoglucomutase 5 pseudogene 4) [SID160772789] resulted in: G2 robust z-score -0.743; G2 cells, % of GMNN control -2.26; inactive.
For PGM5P4 (phosphoglucomutase 5 pseudogene 4) [SID160772790] the deposit lists G2 robust z-score -0.484; G2 cells, % of GMNN control -0.438; inactive.
PDE4DIPP6 (PDE4DIP pseudogene 6) [SID160734042] scored G2 robust z-score 1.2; G2 cells, % of GMNN control 11.4; inactive.
Against PDE4DIPP6 (PDE4DIP pseudogene 6) [SID160770216], the values are G2 robust z-score 2.75; G2 cells, % of GMNN control 22.3; inactive.
PDE4DIPP6 (PDE4DIP pseudogene 6) [SID160770217] showed G2 robust z-score 1.94; G2 cells, % of GMNN control 16.6; inactive.
For BRCA1 (BRCA1 DNA repair associated) [SID160731792], the values are G2 robust z-score -0.608; G2 cells, % of GMNN control -1.31; inactive.
Against BRCA1 (BRCA1 DNA repair associated) [SID160759350], the entry reads G2 robust z-score 0.731; G2 cells, % of GMNN control 8.11; inactive.
Knock-down of BRCA1 (BRCA1 DNA repair associated) [SID160759459] gave: G2 robust z-score 3.55; G2 cells, % of GMNN control 27.9; inactive.
Knock-down of HIF3A (hypoxia inducible factor 3 subunit alpha) [SID160747682] resulted in: G2 robust z-score 0.197; G2 cells, % of GMNN control 4.35; inactive.
After knock-down of HIF3A (hypoxia inducible factor 3 subunit alpha) [SID160747683], the record shows G2 robust z-score 0.321; G2 cells, % of GMNN control 5.22; inactive.
HIF3A (hypoxia inducible factor 3 subunit alpha) [SID160747684] gave G2 robust z-score 2.64; G2 cells, % of GMNN control 21.6; inactive.
EYA3 (EYA transcriptional coactivator and phosphatase 3) [SID160762771] scored G2 robust z-score 5.22; G2 cells, % of GMNN control 39.7; active.
Silencing of EYA3 (EYA transcriptional coactivator and phosphatase 3) [SID160762779] gave: G2 robust z-score -0.857; G2 cells, % of GMNN control -3.06; inactive.
Knock-down of EYA3 (EYA transcriptional coactivator and phosphatase 3) [SID160762788] came out at: G2 robust z-score 2.42; G2 cells, % of GMNN control 20; inactive.
For ADNP (activity dependent neuroprotector homeobox) [SID160736182] the deposit lists G2 robust z-score 1.2; G2 cells, % of GMNN control 11.4; inactive.
With knock-down of ADNP (activity dependent neuroprotector homeobox) [SID160736183], the record shows G2 robust z-score 0.626; G2 cells, % of GMNN control 7.37; inactive.
With knock-down of ADNP (activity dependent neuroprotector homeobox) [SID160736184], the record shows G2 robust z-score -1.16; G2 cells, % of GMNN control -5.16; inactive.
Silencing of NDUFA7 (NADH:ubiquinone oxidoreductase subunit A7) [SID160731274] resulted in: G2 robust z-score -0.727; G2 cells, % of GMNN control -2.15; inactive.
After knock-down of NDUFA7 (NADH:ubiquinone oxidoreductase subunit A7) [SID160777847], the screen gave G2 robust z-score -0.236; G2 cells, % of GMNN control 1.31; inactive.
Against NDUFA7 (NADH:ubiquinone oxidoreductase subunit A7) [SID160777848], the entry reads G2 robust z-score -0.837; G2 cells, % of GMNN control -2.92; inactive.

Single entries from the entries so far:
ADNP (activity dependent neuroprotector homeobox) [SID160736184], G2 robust z-score → -1.16
HIF3A (hypoxia inducible factor 3 subunit alpha) [SID160747684], G2 cells, % of GMNN control = 21.6
